Some of the results follow. The main result of the screen is listed elsewhere. These columns were measured beside it and carry no call. Compounds called inactive in the main read-out are mostly missing here. The note in brackets gives the kind of curve behind each potency; many fits are weak.

This assay is described as follows: qHTS Assay for Lipid Storage Modulators in Drosophila S3 Cells.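 On cell number change: cells counted by Cell Tracker Red CMTPX staining in the red channel.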 The note with it: BODIPY lipid droplet fluorescence, 18-24 h; for cell number change: measured here: cell count max response, cells fed with added oleic acid. Summed up: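 Drosophila S3 cells loaded with oleic acid (400 uM, as added) and compounds at several concentrations; lipid droplets imaged by 488-nm laser-scanning cytometry, 500–530 nm intensity and object ratio to cell channel. Percent activity normalized to 20 uM Triacsin C.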

Where [1] appears, read: measured here: lipid fluorescence (Fed channel) AC50, cells fed with added oleic acid.
Setting [2] is: measured here: cell number channel AC50, cells fed with added oleic acid.

Broadly, the AC50 is the midpoint of the concentration-response curve, whichever way the signal moves. For `C/C=C/C=C/[C@H]1Cc2cc(O)cc(O)c2O1`, the AC50 under setting [1] was 0.0517 µM [falling, full curve, poor fit].

Turning to `O=C(CCN1CCOCC1)NCc1ccccc1`, the cell number change is 42.7%. In addition, the AC50 under setting [2] was 7.31 µM [rising, partial curve].

Consider `Cc1cc2oc(=O)cc(CN3CCN(Cc4ccccc4)CC3)c2cc1C`, for which the cell number change was 11.1%. In addition, under setting [1], the AC50 is 0.58 µM [falling, single point].

Consider `Cc1cc(C)c2nc(NC(=O)CN3C(=O)NC4(CCCC4)C3=O)sc2c1`, for which the cell number change is -10.4%. In addition, under setting [1], the concentration at half-maximal activity (AC50) is 9.2 µM [falling, partial curve].

Consider `C=CCn1c(SCC(=O)Nc2c(C)n(C)n(-c3ccccc3)c2=O)nc2sc(C)c(C)c2c1=O`, for which the cell number change worked out at 40.5%. Moreover, the half-maximal activity concentration (AC50) under setting [2] is 0.231 µM [rising, full curve].

On to `Cc1cccc(N=C2CSC(=O)N2)c1`, for which the cell number change is 41.9%.

Consider `O=C(OCc1nnc(-c2cccs2)o1)c1cccnc1Cl`, for which the cell number change is -8.65%. Further, the concentration at half-maximal activity (AC50) under setting [1] was 29.1 µM [rising, partial curve].

`Cn1c(NCC(O)CO)nc2c1c(=O)n(Cc1ccc(Cl)c(Cl)c1)c(=O)n2C` (stereo unspecified): the cell number change is -10.9%. The half-maximal activity concentration (AC50) under setting [1] was 20.6 µM [falling, single point].

For the compound `Cc1cc(N2CCN(c3nnnn3-c3ccccc3)CC2)n2ncnc2n1`, the cell number change is 14%. In addition, the AC50 under setting [1] was 0.0731 µM [falling, full curve, poor fit].

For the compound `S=C1NC[C@H](CC2CCCCC2)N1CCCCC1CCCCC1`, the cell number change was -7.32%. Also, the half-maximal activity concentration (AC50) under setting [1] was 13 µM [rising, partial curve, poor fit].

Consider `CCN(CC(=O)NCc1ccc(Cl)cc1)C(=O)Cc1ccccc1[N+](=O)[O-]`, for which the cell number change was found to be 170%. For the same compound, the AC50 under setting [2] is 25.9 µM [rising, partial curve].

In the case of `CCOc1cccc(/C=N/NC(=O)c2cc(-c3cccn3C)n[nH]2)c1O`, the cell number change was -44.2%. Besides, the half-maximal activity concentration (AC50) under setting [2] is 16.4 µM [falling, single point]. In addition, the AC50 under setting [1] was 18.4 µM [falling, single point].

Consider `O=C1C2CCCN2C(=O)N1CCCN1CCN(c2cccc(Cl)c2)CC1` (stereo unspecified), for which the cell number change is 4.83%. Under setting [2], the concentration at half-maximal activity (AC50) is 2.91 µM [rising, single point]. Besides, the AC50 under setting [1] was 0.00461 µM [falling, full curve, poor fit].

With `CCOC(=O)/C=c1\s/c(=C\c2ccc(-c3ccccc3)cc2)c(=O)n1CC(=O)NCc1ccc2c(c1)OCO2`, the cell number change was -11.4%. For the same compound, under setting [1], the AC50 was 29.1 µM [rising, single point].

Regarding `COc1cc(-c2nn3c(C4CCCCC4)nnc3s2)cc(OC)c1OC`, the cell number change was 1.44%. Besides, under setting [1], the half-maximal activity concentration (AC50) was 1.03 µM [falling, full curve].

With `CCOC(=O)C1=C(c2ccccc2)NC(SCC(N)=O)=C(C#N)C1c1cccnc1` (stereo unspecified), the cell number change amounted to 26.8%.

For `O=C(OCc1ccccc1)C1=[N+]([O-])OC(C(=O)OCc2ccccc2)C1c1c[nH]c2ccccc12` (stereo unspecified), the cell number change is -8.38%. Further, the half-maximal activity concentration (AC50) under setting [2] was 1.03 µM [rising, full curve, poor fit]. Moreover, the AC50 under setting [1] was 0.00461 µM [rising, full curve, poor fit].

Consider `CCOC(=O)c1ccc(-n2c(C)nc3ccccc3c2=O)cc1`, for which the cell number change is -34.2%. The concentration at half-maximal activity (AC50) under setting [2] is 23.1 µM [falling, partial curve].

`O=C(Nc1ccn(Cc2ccccc2F)n1)c1ccc(COc2cccc(Br)c2)cc1`: the cell number change worked out at 28.9%. Also, the half-maximal activity concentration (AC50) under setting [2] was 0.058 µM [rising, full curve, poor fit]. Also, under setting [1], the half-maximal activity concentration (AC50) was 1.16 µM [rising, partial curve].

As for `COc1cccc(NC(=O)CSc2nnc(NC(=O)c3ccco3)s2)c1`, the cell number change was found to be 1.49%. Moreover, the AC50 under setting [1] is 18.4 µM [rising, single point].

On to `CCOc1cc(C(=O)NCC(=O)N/N=C/c2sccc2C)cc(OCC)c1OCC`, for which the cell number change was -0.923%. Further, the concentration at half-maximal activity (AC50) under setting [2] was 0.00461 µM [rising, full curve, poor fit].

For the compound `CNC(=S)N(CCc1c(C)[nH]c2ccc(OC)cc12)Cc1ccco1`, the cell number change is -19.9%.

Consider `O=c1c2cc(Cl)ccc2[nH]c(=S)n1Cc1ccccn1`, for which the cell number change came out at 47%. Further, the AC50 under setting [2] is 14.6 µM [rising, partial curve].

For the compound `COc1ccccc1N1CCN(C(=O)C(Sc2ccccc2)c2ccccc2)CC1` (stereo unspecified), the cell number change is 60.9%. Further, the half-maximal activity concentration (AC50) under setting [2] was 3.26 µM [rising, full curve].

Take `O=C(/C=C/c1cc([N+](=O)[O-])ccc1OC(F)F)NCc1ccc(Cl)cc1`: the cell number change amounted to 62.6%. For the same compound, under setting [2], the half-maximal activity concentration (AC50) is 0.731 µM [rising, full curve]. Under setting [1], the AC50 was 1.03 µM [rising, full curve].

As to `O=C(CCCl)N(Cc1nc2ccccc2c(=O)[nH]1)Cc1cccs1`, the cell number change was 22.4%. Moreover, the concentration at half-maximal activity (AC50) under setting [1] is 0.116 µM [rising, full curve].

In the case of `CCCCCc1nnc(NC(=O)C2CCCO2)s1` (stereo unspecified), the AC50 under setting [1] was 5.17 µM [falling, partial curve].

`CC(C)C(=O)C1=Cc2cc([N+](=O)[O-])ccc2OC1N1CCOCC1` (stereo unspecified): the cell number change came out at 2.36%. Also, the half-maximal activity concentration (AC50) under setting [1] was 6.51 µM [falling, single point].

In the case of `C=Cn1cc[n+](CC(=O)c2ccc(OC)c(OC)c2)c1`, the cell number change is -2.62%. For the same compound, the AC50 under setting [1] is 29.1 µM [falling, single point].

For the compound `CC(C)(c1ccccc1)c1ccc(OCCN2CCOCC2)cc1`, the cell number change was -32.4%. Further, the AC50 under setting [2] was 29.1 µM [falling, single point]. Further, the AC50 under setting [1] is 2.31 µM [falling, partial curve].

The values are drawn from PubChem BioAssay AID2685 (National Center for Advancing Translational Sciences (NCATS), 2010).
